Results are given in words; binding and its absence hold for the method and conditions named. In cells and extracts the contact can be indirect. Some entries that bind do so weakly or less than the wild type. Values belong to the substance of their own block, whether it stands above or below them.
What was measured:
[1] = target: HA-tagged wild-type (WT) STING (human) (UniProt Q86WV6); assay: co-immunoprecipitation of STING-HA with mCh-DNAJC13 (FIG. 21B)
[2] = target: HA-tagged wild-type (WT) STING (human) (UniProt Q86WV6); assay: co-immunoprecipitation of STING-HA with mCh-DNAJC13, digitonin only or digitonin and cGAMP for 4 hours (FIG. 21B)
HSC70 (human) = HSC70 (human) (UniProt P11142); assay: mNeonGreen-trap co-immunoprecipitation from U937 lysate, with or without cGAMP, immunoblot (FIG. 11F)
[3] = target: HA-tagged STING R284S (constitutive active SAVI mutant) (human) (UniProt Q86WV6); assay: anti-HA co-immunoprecipitation from 293T lysate, immunoblot (FIG. 3E)
[4] = target: HA-tagged STING V155M (constitutive active SAVI mutant) (human) (UniProt Q86WV6); assay: as above
[5] = target: HA-tagged STING R284S (constitutive active SAVI mutant) (human) (UniProt Q86WV6); assay: anti-HA co-immunoprecipitation from 293T lysate, immunoblot (FIG. 3F)
[6] = target: HA-tagged STING V155M (constitutive active SAVI mutant) (human) (UniProt Q86WV6); assay: as above

Chains of the proteins cited; added tags and fusions are not shown. Lines headed by an entry give the natural chain unless they say otherwise; changes in a name come on top. Residues count along the entry.
UniProt Q86WV6: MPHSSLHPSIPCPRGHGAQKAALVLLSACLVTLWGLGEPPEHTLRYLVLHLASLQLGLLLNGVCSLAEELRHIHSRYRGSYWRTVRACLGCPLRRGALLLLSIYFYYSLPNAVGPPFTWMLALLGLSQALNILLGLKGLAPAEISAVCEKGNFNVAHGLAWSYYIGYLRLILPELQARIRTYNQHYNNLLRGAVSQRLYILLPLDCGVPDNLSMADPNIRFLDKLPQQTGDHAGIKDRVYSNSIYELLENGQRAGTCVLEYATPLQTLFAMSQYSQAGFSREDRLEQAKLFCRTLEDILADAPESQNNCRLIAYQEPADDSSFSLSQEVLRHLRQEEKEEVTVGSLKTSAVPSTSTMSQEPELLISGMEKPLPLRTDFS
UniProt P11142, residues 2-646: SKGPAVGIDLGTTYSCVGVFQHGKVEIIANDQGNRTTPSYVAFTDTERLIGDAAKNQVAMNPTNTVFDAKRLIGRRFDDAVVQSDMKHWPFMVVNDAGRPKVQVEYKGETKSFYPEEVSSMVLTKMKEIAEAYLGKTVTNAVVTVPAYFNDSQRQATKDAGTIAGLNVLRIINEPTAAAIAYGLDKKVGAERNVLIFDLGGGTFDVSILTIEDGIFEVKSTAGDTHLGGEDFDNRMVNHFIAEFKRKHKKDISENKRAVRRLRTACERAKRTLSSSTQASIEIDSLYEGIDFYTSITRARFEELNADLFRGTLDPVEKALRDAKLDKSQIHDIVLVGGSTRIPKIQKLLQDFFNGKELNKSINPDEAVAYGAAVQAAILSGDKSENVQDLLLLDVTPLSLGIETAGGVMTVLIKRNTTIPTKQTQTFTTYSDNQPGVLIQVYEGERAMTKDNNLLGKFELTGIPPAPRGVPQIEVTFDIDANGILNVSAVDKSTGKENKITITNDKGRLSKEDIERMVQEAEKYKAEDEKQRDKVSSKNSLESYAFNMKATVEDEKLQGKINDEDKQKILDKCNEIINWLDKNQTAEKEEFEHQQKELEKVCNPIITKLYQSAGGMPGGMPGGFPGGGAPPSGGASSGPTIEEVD
UniProt O75165: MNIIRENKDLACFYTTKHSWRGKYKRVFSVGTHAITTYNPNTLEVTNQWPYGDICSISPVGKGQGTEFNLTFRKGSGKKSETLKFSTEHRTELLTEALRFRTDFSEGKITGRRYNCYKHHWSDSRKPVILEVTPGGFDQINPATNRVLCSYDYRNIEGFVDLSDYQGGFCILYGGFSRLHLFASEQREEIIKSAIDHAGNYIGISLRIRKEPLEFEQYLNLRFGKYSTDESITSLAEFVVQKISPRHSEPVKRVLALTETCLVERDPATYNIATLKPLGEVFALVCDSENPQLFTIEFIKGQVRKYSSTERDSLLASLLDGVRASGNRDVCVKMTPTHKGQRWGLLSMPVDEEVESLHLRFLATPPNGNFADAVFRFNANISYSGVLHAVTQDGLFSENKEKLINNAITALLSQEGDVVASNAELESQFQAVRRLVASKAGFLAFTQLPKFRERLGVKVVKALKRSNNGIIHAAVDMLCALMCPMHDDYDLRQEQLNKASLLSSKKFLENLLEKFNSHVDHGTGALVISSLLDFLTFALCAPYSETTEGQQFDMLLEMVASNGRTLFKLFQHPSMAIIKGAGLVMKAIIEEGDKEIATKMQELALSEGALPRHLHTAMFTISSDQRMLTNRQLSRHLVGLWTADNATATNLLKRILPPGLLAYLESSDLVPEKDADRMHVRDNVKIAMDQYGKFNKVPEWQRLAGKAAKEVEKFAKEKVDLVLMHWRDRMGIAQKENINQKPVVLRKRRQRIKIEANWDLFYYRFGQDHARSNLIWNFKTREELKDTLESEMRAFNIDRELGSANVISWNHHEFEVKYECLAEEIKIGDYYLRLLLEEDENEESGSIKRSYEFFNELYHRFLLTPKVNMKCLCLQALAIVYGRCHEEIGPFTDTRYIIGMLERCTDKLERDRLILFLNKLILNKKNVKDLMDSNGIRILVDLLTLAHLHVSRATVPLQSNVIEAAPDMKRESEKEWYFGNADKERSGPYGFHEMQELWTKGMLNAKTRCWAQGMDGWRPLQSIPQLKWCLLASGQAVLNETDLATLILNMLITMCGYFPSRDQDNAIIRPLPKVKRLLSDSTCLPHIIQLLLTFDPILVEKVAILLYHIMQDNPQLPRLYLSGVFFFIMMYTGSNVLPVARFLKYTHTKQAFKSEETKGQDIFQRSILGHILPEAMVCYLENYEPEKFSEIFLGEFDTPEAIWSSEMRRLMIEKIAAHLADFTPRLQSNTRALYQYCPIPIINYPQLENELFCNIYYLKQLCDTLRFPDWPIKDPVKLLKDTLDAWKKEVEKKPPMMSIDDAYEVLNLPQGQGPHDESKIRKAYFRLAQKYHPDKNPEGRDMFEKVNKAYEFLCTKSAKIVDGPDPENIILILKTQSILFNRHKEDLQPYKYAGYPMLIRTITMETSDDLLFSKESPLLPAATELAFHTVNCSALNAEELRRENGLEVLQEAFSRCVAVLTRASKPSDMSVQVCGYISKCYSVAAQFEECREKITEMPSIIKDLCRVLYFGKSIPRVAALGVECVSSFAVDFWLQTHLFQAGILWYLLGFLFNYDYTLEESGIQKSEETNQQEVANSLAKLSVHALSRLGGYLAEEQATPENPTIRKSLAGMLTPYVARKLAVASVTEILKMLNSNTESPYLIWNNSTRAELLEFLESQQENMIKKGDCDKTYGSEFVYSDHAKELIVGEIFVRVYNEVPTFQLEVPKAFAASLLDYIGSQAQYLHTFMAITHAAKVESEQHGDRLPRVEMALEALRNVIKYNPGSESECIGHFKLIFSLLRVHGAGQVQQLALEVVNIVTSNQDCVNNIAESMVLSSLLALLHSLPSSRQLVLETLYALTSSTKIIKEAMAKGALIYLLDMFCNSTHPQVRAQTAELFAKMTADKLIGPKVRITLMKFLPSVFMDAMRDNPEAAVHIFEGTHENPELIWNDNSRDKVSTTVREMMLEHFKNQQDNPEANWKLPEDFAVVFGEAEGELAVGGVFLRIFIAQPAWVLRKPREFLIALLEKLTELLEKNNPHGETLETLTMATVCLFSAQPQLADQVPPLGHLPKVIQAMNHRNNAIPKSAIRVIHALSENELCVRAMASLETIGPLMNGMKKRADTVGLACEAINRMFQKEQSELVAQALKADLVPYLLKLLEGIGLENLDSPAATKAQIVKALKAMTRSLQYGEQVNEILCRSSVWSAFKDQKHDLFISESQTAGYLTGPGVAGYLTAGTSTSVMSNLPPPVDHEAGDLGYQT
UniProt O14964: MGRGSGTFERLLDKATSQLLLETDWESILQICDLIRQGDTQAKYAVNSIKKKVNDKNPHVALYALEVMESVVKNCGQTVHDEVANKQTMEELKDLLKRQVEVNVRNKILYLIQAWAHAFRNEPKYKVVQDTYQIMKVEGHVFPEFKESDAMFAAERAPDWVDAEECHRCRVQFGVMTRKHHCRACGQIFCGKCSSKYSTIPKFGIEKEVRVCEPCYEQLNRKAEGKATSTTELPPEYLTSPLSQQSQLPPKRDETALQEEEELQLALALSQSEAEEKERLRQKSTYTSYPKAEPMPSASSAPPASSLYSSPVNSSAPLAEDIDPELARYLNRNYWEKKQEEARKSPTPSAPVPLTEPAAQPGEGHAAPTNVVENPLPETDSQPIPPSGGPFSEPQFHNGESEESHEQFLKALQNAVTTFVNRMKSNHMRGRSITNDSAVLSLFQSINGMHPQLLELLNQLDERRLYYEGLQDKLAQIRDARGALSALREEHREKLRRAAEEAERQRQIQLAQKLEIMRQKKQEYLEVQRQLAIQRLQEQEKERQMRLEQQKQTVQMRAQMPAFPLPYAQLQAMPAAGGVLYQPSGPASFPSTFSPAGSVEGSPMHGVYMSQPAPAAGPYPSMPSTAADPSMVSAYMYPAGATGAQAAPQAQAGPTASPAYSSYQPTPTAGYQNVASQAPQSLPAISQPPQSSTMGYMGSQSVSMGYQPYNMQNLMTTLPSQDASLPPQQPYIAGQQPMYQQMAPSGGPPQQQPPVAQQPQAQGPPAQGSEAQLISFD
UniProt Q8NEZ2: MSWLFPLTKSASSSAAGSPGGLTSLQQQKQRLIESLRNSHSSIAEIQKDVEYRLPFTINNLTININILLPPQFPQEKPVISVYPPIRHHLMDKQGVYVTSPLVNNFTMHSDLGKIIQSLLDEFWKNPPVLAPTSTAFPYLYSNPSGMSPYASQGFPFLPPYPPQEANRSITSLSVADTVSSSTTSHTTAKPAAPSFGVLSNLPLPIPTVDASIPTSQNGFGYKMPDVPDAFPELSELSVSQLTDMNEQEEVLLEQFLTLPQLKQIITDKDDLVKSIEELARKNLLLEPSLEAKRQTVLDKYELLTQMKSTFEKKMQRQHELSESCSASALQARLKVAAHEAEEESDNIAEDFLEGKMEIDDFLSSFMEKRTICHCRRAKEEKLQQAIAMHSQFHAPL

binding [1]: binds | binding [2]: binds
Substance: mCherry fused with DNAJC13 (mCh-DNAJC13) (from UniProt O75165 1-2243)

binding (HSC70 (human)): binds
Substance: STING-mNeonGreen (from UniProt Q86WV6 1-379)

binding [3]: binds | binding [4]: binds
Substance: mScarlet-HGS (hepatocyte growth factor-regulated tyrosine kinase substrate fused to mScarlet) (from UniProt O14964 1-777)

binding [5]: binds | binding [6]: binds
Substance: mScarlet-VPS37A (vacuolar protein sorting-associated protein 37A fused to mScarlet) (from UniProt Q8NEZ2 1-397)
